{"source": "patent US9193669B2", "about": "“Compounds for treating ophthalmic diseases and disorders” (Acucela Inc., priority 2008, dated 2015)", "note": "Some results were stated once for a whole list of compounds, not compound by compound."}
{"target": "T1, recombinant human RPE65 and LRAT (Homo sapiens, UniProt Q16518)", "T1 construct": "made in house; host or cells: HEK293 cell clone (homogenate) for RPE65 and LRAT; E. coli TOP10 for CRALBP", "T1 sequence (Q16518 2-533 limits assumed)": "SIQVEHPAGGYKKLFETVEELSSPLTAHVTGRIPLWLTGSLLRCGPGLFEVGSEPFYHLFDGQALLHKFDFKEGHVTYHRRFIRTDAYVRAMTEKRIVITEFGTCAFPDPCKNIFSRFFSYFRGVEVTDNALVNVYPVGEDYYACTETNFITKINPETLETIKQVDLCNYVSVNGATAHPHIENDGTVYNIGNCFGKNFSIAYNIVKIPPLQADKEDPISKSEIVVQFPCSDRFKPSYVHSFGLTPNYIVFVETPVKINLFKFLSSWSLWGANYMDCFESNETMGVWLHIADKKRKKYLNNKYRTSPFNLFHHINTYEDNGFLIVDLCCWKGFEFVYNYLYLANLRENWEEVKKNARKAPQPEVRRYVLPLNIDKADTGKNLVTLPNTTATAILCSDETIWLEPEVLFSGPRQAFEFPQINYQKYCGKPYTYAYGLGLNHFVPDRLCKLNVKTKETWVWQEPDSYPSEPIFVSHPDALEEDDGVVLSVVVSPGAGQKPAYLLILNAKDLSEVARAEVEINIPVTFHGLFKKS", "experiment": "Human in vitro isomerase inhibition reaction", "assay_type": "biochemical", "details": "Human in vitro Inhibition Data; 11-cis-retinol formation, HEK293 homogenate, 37° C., one hour", "experimental": "A homogenate of HEK293 cell clone expressing recombinant human RPE65 and LRAT were the source of the visual enzymes, and exogenous all-trans-retinol (about 20 μM) was used as the substrate. […] The 200 μL Bis-Tris Phosphate buffer (10 mM, pH 7.2) based reaction mixture also contains 0.5% BSA, and 1 mM NaPPi. In this assay, the reaction was carried out at 37° C. in duplicates for one hour and was terminated by addition of 300 μL methanol. The amount of reaction product, 11-cis-retinol, was measured by HPLC analysis following Heptane extraction of the reaction mixture.", "units": {"IC50": "nM"}}
{"molecule": "CCCC(C)S(=O)(=O)Nc1cccc(OCCN)c1", "note": "(stereo not shown) [Example 1, N-(3-(2-aminoethoxy)phenyl)pentane-2-sulfonamide]", "IC50": ">1000"}
{"molecule": "CCC(C)S(=O)(=O)Nc1cccc(OCCN)c1", "note": "(stereo not shown) [Example 2, N-(3-(2-aminoethoxy)phenyl)butane-2-sulfonamide]", "IC50": ">1000"}
{"molecule": "CC(C)S(=O)(=O)Nc1cccc(OCCN)c1", "note": "[Example 3, N-(3-(2-aminoethoxy)phenyl)propane-2-sulfonamide]", "IC50": ">1000"}
{"molecule": "CCCN(CCC)C(=O)Nc1cccc(CCCN)c1", "note": "[Example 9, 3-(3-(3-aminopropyl)phenyl)-1,1-dipropylurea]", "IC50": ">1000"}
{"molecule": "NCCOc1cccc(NC(=S)NC2CCCCC2)c1", "note": "[Example 10, 1-(3-(2-aminoethoxy)phenyl)-3-cyclohexylthiourea]", "IC50": ">1000"}
{"molecule": "NCCCc1cccc(NCCCc2ccccc2)c1", "note": "[Example 64, 3-(3-Aminopropyl)-N-(3-phenylpropyl)aniline]", "IC50": ">1000"}
{"molecule": "NCCCc1cccc(NS(=O)(=O)c2ccccc2)c1", "note": "[Example 99, N-(3-(3-Aminopropyl)phenyl)benzenesulfonamide]", "IC50": ">1000"}
